According to patent publication US12508328B2, “Bio-activated reporters to visualize, in real time, specific gene therapy products” (Northwestern University, priority 2019, dated 2025):
At least one structure is not confirmed: it was looked up by name or label, or the drawing left a doubt.

Sequences of proteins named here, by UniProt entry; tags and fusion partners are left off. Residues count along the entry.
UniProt P00722, 2-1024: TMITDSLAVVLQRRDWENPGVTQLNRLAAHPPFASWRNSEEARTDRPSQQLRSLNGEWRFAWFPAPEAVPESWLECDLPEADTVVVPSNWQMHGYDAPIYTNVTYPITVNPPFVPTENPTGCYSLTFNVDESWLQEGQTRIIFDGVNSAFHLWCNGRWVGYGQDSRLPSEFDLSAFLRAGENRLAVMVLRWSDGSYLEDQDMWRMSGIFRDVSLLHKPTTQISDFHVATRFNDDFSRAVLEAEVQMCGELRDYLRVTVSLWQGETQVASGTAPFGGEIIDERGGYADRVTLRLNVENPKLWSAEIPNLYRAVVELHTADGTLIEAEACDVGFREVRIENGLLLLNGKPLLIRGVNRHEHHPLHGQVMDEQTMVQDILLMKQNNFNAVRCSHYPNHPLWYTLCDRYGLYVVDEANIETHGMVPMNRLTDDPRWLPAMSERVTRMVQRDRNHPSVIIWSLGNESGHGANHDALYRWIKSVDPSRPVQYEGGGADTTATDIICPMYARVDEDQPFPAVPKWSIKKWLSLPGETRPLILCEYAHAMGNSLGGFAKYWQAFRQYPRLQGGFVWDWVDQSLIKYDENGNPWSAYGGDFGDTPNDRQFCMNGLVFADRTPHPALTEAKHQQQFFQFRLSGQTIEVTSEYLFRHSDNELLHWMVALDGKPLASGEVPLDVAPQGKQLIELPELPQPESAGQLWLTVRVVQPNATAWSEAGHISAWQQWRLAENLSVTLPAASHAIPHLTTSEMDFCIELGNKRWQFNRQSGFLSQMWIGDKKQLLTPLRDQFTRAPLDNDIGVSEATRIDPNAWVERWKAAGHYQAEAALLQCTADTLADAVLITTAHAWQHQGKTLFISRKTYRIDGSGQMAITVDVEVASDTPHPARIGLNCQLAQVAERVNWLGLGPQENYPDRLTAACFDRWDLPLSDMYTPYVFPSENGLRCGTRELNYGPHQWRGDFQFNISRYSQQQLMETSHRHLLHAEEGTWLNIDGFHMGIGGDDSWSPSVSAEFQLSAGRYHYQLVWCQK

Molecular target: T1, β-galactosidase (Escherichia coli, UniProt P00722)
T1 construct: purchased Sigma Aldrich
Type: biochemical
Conditions: 25° C., TES buffer, 1 mM MgCl2, 150 mM NaCl; 420 nm
Experimental: Catalytic efficiencies for five substrates, 5a-c, ONPG, and PNPG were evaluated by UV-vis spectroscopy (Table 3). ONPG and PNPG are literature standards that were used to ensure the assay was performed adequately and to serve as benchmarks of activation kinetics in the absence of the GdIII chelate. […] Catalytic efficiency is directly related to the imaging window wherein activation to the r1, on state is competing with clearance.
Enzyme activation kinetics were determined by the method of initial rates for compounds 5a-c via the appearance of the nitrophenol byproduct of activation. The characteristic absorption was monitored at 420 nm. Concentrations of substrate used were 0, 0.05, 0.1, 0.12, 0.15, 0.3, 0.4, 0.5, 0.75, 1, and 2 mM. Each concentration was measured in triplicate and exact concentrations were measured by ICP-MS (see Table 2).

## O=[N+]([O-])c1ccc(O[C@@H]2O[C@H](CO)[C@H](O)[C@H](O)[C@H]2O)cc1 [PNPG, para-nitrophyenyl-[…]-galactoside, reference compound]
  kcat/ Km (catalytic efficiency): 4.5 M⁻¹ s⁻¹
